Results deposited as PubChem BioAssay AID1259308 (NCATS, 2017)

Test: 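Knock-downs that increase output of a recombinant reporter protein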 (primary screen)
Cell system: human HEK293 embryonic kidney cells stably expressing firefly luciferase (HEK-CMV-Luc2-Hygro)
Reagent: single siRNA against human genes, 0.8 pmol siRNA per well
Time to read-out: 72 h
Detection: 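Reporter luminescence and viable-cell signal on separate replicate plates, given as percent of non-targeting control and median/MAD z-scores, plus per-cell luciferase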
Scale: total luciferase, z-score: higher = more reporter protein produced
Active means: 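An siRNA counts as active if its total luciferase robust z-score exceeds 3; genes with two or more such siRNAs out of three were retested with fresh siRNAs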
Meaning of the calls: active = raised luciferase; inactive = no rise
In all, the deposit lists about 59,000 reagents; shown is an unselected part. About 1,510 of all reagents (2.6%) were called active. 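Calls use total luciferase alone and ignore viability, so some active siRNAs may act by altering cell number.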 The numbers tell different reagents against one gene apart. Further read-outs or replicates are left out here. Reagent sequences are not shown.

target gene,reagent,"total luciferase, z-score",call
DNAJB1,1,1.28,inactive
DNAJB1,2,-0.27,inactive
DNAJB1,3,0.348,inactive
TMEM44,1,-0.264,inactive
TMEM44,2,1.41,inactive
TMEM44,3,0.269,inactive
ICA1L,1,4.7,active
ICA1L,2,3.61,active
ICA1L,3,1.01,inactive
TMEM125,1,-0.527,inactive
TMEM125,2,0.658,inactive
TMEM125,3,1.67,inactive
SLFN12L,1,0.428,inactive
SLFN12L,2,1.85,inactive
SLFN12L,3,-0.316,inactive
ZBTB1,1,0.601,inactive
ZBTB1,2,-0.532,inactive
ZBTB1,3,0.154,inactive
CBFA2T3,1,-0.0609,inactive
CBFA2T3,2,-1.72,inactive
CBFA2T3,3,4.35,active
RBM18,1,-0.409,inactive
RBM18,2,-1.04,inactive
RBM18,3,-0.649,inactive
GREM1,1,-0.156,inactive
GREM1,2,1.35,inactive
GREM1,3,0.505,inactive
LOC730110,1,-0.501,inactive
LOC730110,2,-0.629,inactive
LOC730110,3,0.245,inactive
LAMB2,1,1.69,inactive
LAMB2,2,2.16,inactive
LAMB2,3,-0.22,inactive
MYC,1,-0.276,inactive
MYC,2,-0.65,inactive
MYC,3,0.476,inactive
TAS2R45,1,1.01,inactive
TAS2R45,2,-0.39,inactive
TAS2R45,3,0.827,inactive
